Test results published in US6699853B2, “4-HALOALKYL-3-HETEROCYCLYLPYRIDINES, 4-HALOALKYL-5-HETEROCYCLYL-PYRIMIDINES AND 4-TRIFLUOROMETHYL-3-OXADIAZOLYLPYRIDINES, PROCESSES FOR THEIR PREPARATION, CO[…], AND THEIR USE AS PESTICIDES” (Hoechst Schering AgrEvo GmbH, priority 1997, dated 2004).
Some of these results come from one statement about several compounds together. At least one compound was matched to its structure with a doubt left. Some compounds share one range, which may span the group rather than tell each member.

How the values were obtained:
Assay type in all cases: in vivo
[1] = system: black bean aphids (Aphis fabae); assay: Black bean aphid root-systemic test on broad bean (I, Biological Example 4); settings: 30 ppm (content of active compound); 4 ml pipetted into the bottle; after 3 and 6 days' storage
[2] = system: black bean aphids (Aphis fabae); assay: Black bean aphid dip test on broad bean (I, Biological Example 2); settings: 300 ppm (content of active compound); plants and aphids dipped 5 seconds; after 3 and 6 days' storage
[3] = system: eggs of the American tobacco budworm (Heliothis virescens); assay: Egg/larva test on American tobacco budworm, eggs dipped in aqueous preparation (I, Biological Example 1); settings: 300 ppm (content of active compound); after 6 days' storage, about 25° C.
[4] = system: larvae (L3 stage) of the rice leaf hopper species Nilaparvata lugens; assay: Rice leaf hopper test on dipped rice plants (I, Biological Example 3); settings: 300 ppm (content of active compound); rice leaves dipped 5 seconds; after 6 days' storage
[5] = system: larvae (L3 stage) of the rice leafhopper species Nilaparvata lugens; assay: Rice leafhopper test on dipped rice plants (II, Biological Example 2); settings: 300 ppm (content of active compound); rice leaves dipped 5 seconds; after 6 days storage
[6] = system: black bean aphids (Aphis fabae); assay: Black bean aphid root-systemic test on broad bean (II, Biological Example 3); settings: 30 ppm (content of active compound); 4 ml pipetted into the bottle; after 3 and 6 days storage
[7] = system: black bean aphids (Aphis fabae); assay: Black bean aphid dip test on broad bean (II, Biological Example 1); settings: 300 ppm (content of active compound); plants and aphids dipped 5 seconds; after 3 and 6 days storage

| Structure (SMILES) | mortality among the aphids by root-systemic action [1] | mortality among the aphids [2] | other results |
| --- | --- | --- | --- |
| Cc1noc(-c2cnccc2C(F)(F)F)n1 [compound 78] | 90-100% | 90-100% | – |
| CC1(C)COC(c2cnccc2C(F)(F)F)=N1 [compound 1246] | 90-100% | 90-100% | – |
| CCCCCc1noc(-c2cnccc2C(F)(F)F)n1 [compound 88] | 90-100% | 90-100% | mortality (effect on the eggs and the larvae which may have hatched) [3]: 90-100%; mortality among the leafhopper larvae [4]: 90-100% |
| COC(=O)C(=O)OCc1noc(-c2cnccc2C(F)(F)F)n1 [2/255] | – | – | mortality among the leafhopper larvae [5]: 90-100% |
| CC(C)S(=O)(=O)Cc1noc(-c2cnccc2C(F)(F)F)n1 [2/97] | – | – | mortality among the aphids by root-systemic action [6]: 90-100%; mortality among the leafhopper larvae [5]: 90-100% |
| FC(F)(F)c1ccncc1-c1nc(CS)no1 [2/29] | – | – | mortality among the aphids [7]: 90-100%; mortality among the aphids by root-systemic action [6]: 90-100% |
| CC(C)COCc1noc(-c2cnccc2C(F)(F)F)n1 [2/6] | – | – | mortality among the aphids [7]: 90-100%; mortality among the aphids by root-systemic action [6]: 90-100% |
| FC(F)(F)c1ccncc1-c1nc(CSCC2CC2)no1 [2/43] | – | – | mortality among the aphids [7]: 90-100%; mortality among the aphids by root-systemic action [6]: 90-100% |
| CC1COC(c2cnccc2C(F)(F)F)=N1 (stereo not drawn) [compound 1230] | 90-100% | 90-100% | – |
| C[S+]([O-])CCc1noc(-c2cnccc2C(F)(F)F)n1 (stereo not drawn) [3/50] | – | – | mortality among the aphids [7]: 90-100%; mortality among the aphids by root-systemic action [6]: 90-100%; mortality among the leafhopper larvae [5]: 90-100% |
| CS(=O)(=O)CCc1noc(-c2cnccc2C(F)(F)F)n1 [3/75] | – | – | mortality among the aphids [7]: 90-100%; mortality among the aphids by root-systemic action [6]: 90-100%; mortality among the leafhopper larvae [5]: 90-100% |
| FC(F)(F)c1ccncc1-c1nc(CSc2ccccc2)no1 [compound 138] | 90-100% | 90-100% | – |
| CC(C)(C)OC(=O)Cc1noc(-c2cnccc2C(F)(F)F)n1 [compound 137] | 90-100% | 90-100% | – |
| COC(=O)OCc1noc(-c2cnccc2C(F)(F)F)n1 [2/153] | – | – | mortality among the aphids by root-systemic action [6]: 90-100%; mortality among the leafhopper larvae [5]: 90-100% |
| C#CCOCCc1noc(-c2cnccc2C(F)(F)F)n1 [3/6] | – | – | mortality among the aphids [7]: 90-100%; mortality among the aphids by root-systemic action [6]: 90-100% |
| CNC(=O)Cc1noc(-c2cnccc2C(F)(F)F)n1 [compound 139] | 90-100% | 90-100% | mortality among the leafhopper larvae [4]: 90-100% |

| Structure (SMILES) | mortality among the aphids by root-systemic action [1] | mortality among the aphids [2] | other results |
| --- | --- | --- | --- |
| CCC(C)c1noc(-c2cnccc2C(F)(F)F)n1 (stereo not drawn) [compound 84] | 90-100% | 90-100% | – |
| CCC1COC(c2cnccc2C(F)(F)F)=N1 (stereo not drawn) [compound 1231] | 90-100% | 90-100% | – |
| CCc1coc(-c2cnccc2C(F)(F)F)n1 [compound 1117] | 90-100% | 90-100% | – |
| COCCc1noc(-c2cnccc2C(F)(F)F)n1 [compound 136] | 90-100% | 90-100% | – |
| CCCCc1noc(-c2cnccc2C(F)(F)F)n1 [compound 83] | 90-100% | 90-100% | – |
| CCc1noc(-c2cnccc2C(F)(F)F)n1 [compound 79] | 90-100% | 90-100% | mortality (effect on the eggs and the larvae which may have hatched) [3]: 90-100% |
| FC(c1noc(-c2cnccc2C(F)(F)F)n1)C(F)(F)F (stereo not drawn) [compound 133] | 90-100% | 90-100% | – |
| FC(F)(F)c1ccncc1C1=NCCO1 [compound 1229] | 90-100% | 90-100% | – |
| OCCc1noc(-c2cnccc2C(F)(F)F)n1 [compound 135] | 90-100% | 90-100% | – |
| CCCc1noc(-c2cnccc2C(F)(F)F)n1 [compound 80] | 90-100% | 90-100% | – |
| CC(C)c1noc(-c2cnccc2C(F)(F)F)n1 [compound 81] | 90-100% | 90-100% | – |
| CC(C)C(=O)OCc1noc(-c2cnccc2C(F)(F)F)n1 [2/127] | – | – | mortality among the leafhopper larvae [5]: 90-100% |
| CC1CN=C(c2cnccc2C(F)(F)F)O1 (stereo not drawn) [compound 1254] | 90-100% | 90-100% | – |
| Cn1cnnc1SCc1noc(-c2cnccc2C(F)(F)F)n1 [2/67] | – | – | mortality among the aphids [7]: 90-100%; mortality among the aphids by root-systemic action [6]: 90-100% |
| FC(F)(F)c1ccncc1-c1nnc(Cc2ccsc2)o1 [compound 927] | – | – | mortality among the leafhopper larvae [4]: 90-100% |
| CCc1noc(-c2cncnc2C(F)(F)F)n1 [compound 187] | 90-100% | – | – |
